Source: patent US20150272161A1, “CHEWING GUM PRODUCTS CONTAINING (R)-2-[((1R,2S,5R)-2-ISOPROPYL-5-METHYLCLOHEXANECARBONYL)-AMINO]-ACETIC ACID ISOPROPYL ESTER” (WM. WRIGLEY JR. COMPANY, priority 2011, published 2015)

Experiment: Sensory panel: bitterness intensity of solutions of cooling agent in 5% sucrose
Assay type: in vivo, human
Conditions: for Average Bitterness Intensity Score: five to six panelists
Procedure: Table 3 and FIG. 2 show test results of a trained sensory panel of five to six panelists where the panelists were asked to rate the bitterness intensity of solutions prepared with different concentrations of WS-5 and Gly-OiPr.
The sample solutions used in Table 3 and FIG. 2 were prepared with 5% sucrose solutions using distilled deionized water with differing concentrations (in ppm) of WS-5 and Gly-OiPr.

SMILES: CC1CCC(C(C)C)C(C(=O)NCC(=O)OC(C)C)C1 (stereo not drawn) [Gly-OiPr, [(2-isopropyl-5-methyl-cyclohexanecarbonyl)-amino]-acetic acid isopropyl ester]
- Average Bitterness Intensity Score (25 ppm in 5% sucrose solution): 1.6
- Average Bitterness Intensity Score (50 ppm in 5% sucrose solution): 2.4
- Average Bitterness Intensity Score (100 ppm in 5% sucrose solution): 2.4
- Average Bitterness Intensity Score (200 ppm in 5% sucrose solution): 2.8
- Average Bitterness Intensity Score (400 ppm in 5% sucrose solution): 2.8
- Change of bitterness intensity on doubling the concentration (concentration doubled from 200 ppm to 400 ppm): remained the same

SMILES: CCOC(=O)CNC(=O)C1CC(C)CCC1C(C)C (stereo not drawn) [WS-5, ethyl ester of N-[[5-methyl-2-(1-methylethyl)-cyclohexyl]carbonyl] glycine]
- Average Bitterness Intensity Score (25 ppm in 5% sucrose solution): 1.67
- Average Bitterness Intensity Score (50 ppm in 5% sucrose solution): 2.17
- Average Bitterness Intensity Score (100 ppm in 5% sucrose solution): 3.17
- Average Bitterness Intensity Score (200 ppm in 5% sucrose solution): 4.17
- Average Bitterness Intensity Score (400 ppm in 5% sucrose solution): 5
- Average Bitterness Intensity Score (500 ppm in 5% sucrose solution): 5.5
